According to the supplement of paper PMC12067093, “Discovery and optimisation of a covalent ligand for TRIM25 and its application to targeted protein ubiquitination” (Chemical Science, 2025):
The other results are listed elsewhere or left out.

The chains behind the UniProt entries cited, without tags or fusion partners. Where a name states a change or a piece, a line headed by the entry shows the natural chain unless it says otherwise.
UniProt Q562E7: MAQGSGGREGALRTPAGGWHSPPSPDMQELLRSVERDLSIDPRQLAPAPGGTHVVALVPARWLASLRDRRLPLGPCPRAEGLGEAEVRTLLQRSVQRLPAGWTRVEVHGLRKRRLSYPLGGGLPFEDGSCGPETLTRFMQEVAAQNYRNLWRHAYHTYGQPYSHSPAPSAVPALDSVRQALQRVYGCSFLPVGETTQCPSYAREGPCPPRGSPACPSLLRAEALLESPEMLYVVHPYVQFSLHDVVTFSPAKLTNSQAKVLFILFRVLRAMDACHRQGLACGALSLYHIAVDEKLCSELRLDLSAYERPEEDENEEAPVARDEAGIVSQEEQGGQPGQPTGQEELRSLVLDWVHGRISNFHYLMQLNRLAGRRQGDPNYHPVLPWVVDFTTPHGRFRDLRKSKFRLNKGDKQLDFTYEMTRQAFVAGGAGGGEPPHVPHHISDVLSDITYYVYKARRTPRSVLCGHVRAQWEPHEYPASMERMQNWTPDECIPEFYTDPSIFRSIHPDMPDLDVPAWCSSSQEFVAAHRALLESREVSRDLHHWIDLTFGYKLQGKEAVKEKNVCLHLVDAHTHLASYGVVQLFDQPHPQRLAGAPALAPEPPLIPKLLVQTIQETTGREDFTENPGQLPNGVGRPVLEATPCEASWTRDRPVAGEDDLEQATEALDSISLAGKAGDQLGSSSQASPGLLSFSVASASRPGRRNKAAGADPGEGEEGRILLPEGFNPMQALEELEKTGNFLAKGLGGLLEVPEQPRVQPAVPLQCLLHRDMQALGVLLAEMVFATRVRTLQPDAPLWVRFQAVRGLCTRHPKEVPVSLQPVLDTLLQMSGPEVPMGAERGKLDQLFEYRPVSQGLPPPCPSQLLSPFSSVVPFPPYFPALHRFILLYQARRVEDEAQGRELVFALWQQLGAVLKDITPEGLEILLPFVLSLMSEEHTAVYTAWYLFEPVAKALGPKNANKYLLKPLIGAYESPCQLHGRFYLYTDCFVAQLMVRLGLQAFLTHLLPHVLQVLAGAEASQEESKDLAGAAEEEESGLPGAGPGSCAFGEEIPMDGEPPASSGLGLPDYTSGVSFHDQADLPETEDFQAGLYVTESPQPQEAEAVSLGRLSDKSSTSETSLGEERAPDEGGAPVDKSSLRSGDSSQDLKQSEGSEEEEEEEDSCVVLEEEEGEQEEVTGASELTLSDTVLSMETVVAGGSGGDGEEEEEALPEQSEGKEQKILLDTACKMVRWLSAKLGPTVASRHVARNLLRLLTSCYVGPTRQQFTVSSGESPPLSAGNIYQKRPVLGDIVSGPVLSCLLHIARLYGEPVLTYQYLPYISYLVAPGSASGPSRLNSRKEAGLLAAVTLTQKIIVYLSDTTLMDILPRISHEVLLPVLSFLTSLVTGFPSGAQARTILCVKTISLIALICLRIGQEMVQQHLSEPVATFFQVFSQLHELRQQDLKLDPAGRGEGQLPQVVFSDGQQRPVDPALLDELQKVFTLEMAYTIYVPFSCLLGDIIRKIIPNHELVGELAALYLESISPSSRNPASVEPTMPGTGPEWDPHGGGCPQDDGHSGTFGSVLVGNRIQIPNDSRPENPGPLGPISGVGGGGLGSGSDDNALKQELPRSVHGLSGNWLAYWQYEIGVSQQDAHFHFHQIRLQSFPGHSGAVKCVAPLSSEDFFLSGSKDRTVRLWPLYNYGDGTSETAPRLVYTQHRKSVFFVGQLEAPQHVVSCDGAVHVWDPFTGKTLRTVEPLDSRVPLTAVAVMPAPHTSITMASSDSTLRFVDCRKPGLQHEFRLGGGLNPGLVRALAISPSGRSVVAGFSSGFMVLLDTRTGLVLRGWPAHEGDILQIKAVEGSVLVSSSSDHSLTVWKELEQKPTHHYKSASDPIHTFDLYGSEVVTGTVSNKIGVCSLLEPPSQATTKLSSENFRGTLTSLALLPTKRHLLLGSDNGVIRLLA
UniProt Q6PJI9: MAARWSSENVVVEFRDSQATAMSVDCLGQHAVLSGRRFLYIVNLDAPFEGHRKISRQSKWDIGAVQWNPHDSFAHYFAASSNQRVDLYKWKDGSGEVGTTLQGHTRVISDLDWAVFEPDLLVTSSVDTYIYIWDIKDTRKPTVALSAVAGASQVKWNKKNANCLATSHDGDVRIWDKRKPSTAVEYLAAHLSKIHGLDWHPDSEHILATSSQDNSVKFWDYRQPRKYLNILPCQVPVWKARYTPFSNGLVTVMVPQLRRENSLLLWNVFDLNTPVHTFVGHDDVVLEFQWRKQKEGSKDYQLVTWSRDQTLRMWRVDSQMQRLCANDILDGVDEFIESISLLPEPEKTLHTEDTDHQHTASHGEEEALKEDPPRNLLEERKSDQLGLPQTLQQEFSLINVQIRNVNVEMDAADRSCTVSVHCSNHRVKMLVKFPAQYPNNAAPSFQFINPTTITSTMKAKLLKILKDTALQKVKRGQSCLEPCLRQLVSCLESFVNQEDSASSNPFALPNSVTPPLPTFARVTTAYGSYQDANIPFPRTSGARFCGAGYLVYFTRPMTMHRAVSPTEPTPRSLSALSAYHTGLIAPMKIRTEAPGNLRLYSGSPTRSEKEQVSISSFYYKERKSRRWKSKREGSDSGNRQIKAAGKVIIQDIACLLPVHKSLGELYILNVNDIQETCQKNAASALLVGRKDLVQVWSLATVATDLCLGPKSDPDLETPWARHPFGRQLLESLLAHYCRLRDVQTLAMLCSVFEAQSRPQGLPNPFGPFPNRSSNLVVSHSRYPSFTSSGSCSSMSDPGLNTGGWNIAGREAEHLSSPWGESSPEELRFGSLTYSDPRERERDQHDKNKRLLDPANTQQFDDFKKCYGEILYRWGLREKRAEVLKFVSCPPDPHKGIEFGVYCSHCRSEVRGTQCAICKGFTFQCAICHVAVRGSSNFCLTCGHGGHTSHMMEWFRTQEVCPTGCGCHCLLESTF
UniProt Q9BUR4: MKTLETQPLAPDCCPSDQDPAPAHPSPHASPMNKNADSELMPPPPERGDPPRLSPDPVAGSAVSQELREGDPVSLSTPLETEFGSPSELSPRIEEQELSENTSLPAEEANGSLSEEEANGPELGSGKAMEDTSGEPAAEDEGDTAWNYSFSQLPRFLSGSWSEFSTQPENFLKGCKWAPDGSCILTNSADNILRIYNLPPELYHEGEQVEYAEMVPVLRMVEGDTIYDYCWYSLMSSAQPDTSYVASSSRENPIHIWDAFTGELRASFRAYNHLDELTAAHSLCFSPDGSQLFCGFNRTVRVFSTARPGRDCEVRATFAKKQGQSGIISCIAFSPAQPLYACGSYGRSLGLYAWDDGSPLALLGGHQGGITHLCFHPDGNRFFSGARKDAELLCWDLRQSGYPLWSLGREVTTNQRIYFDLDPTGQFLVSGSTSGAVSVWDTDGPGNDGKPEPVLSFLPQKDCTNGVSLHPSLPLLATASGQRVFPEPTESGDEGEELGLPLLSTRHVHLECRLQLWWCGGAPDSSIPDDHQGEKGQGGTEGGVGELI
UniProt Q9NW82: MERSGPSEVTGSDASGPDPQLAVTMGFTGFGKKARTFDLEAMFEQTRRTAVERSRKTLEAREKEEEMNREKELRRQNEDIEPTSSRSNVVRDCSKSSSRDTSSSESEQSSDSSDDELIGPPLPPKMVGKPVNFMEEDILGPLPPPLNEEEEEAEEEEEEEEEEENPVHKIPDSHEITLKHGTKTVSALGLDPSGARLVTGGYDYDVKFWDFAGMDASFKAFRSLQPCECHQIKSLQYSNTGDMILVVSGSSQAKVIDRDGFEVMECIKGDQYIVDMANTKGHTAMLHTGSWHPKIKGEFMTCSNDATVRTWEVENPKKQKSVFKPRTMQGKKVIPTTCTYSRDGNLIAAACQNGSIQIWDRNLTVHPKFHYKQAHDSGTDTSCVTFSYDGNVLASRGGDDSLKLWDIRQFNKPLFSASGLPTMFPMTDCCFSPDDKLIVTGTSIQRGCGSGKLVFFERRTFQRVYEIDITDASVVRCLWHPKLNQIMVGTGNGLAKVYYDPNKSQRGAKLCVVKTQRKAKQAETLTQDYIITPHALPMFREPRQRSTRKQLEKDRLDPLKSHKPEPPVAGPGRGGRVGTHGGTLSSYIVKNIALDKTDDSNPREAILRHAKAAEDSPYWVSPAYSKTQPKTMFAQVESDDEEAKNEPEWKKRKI
UniProt O43379: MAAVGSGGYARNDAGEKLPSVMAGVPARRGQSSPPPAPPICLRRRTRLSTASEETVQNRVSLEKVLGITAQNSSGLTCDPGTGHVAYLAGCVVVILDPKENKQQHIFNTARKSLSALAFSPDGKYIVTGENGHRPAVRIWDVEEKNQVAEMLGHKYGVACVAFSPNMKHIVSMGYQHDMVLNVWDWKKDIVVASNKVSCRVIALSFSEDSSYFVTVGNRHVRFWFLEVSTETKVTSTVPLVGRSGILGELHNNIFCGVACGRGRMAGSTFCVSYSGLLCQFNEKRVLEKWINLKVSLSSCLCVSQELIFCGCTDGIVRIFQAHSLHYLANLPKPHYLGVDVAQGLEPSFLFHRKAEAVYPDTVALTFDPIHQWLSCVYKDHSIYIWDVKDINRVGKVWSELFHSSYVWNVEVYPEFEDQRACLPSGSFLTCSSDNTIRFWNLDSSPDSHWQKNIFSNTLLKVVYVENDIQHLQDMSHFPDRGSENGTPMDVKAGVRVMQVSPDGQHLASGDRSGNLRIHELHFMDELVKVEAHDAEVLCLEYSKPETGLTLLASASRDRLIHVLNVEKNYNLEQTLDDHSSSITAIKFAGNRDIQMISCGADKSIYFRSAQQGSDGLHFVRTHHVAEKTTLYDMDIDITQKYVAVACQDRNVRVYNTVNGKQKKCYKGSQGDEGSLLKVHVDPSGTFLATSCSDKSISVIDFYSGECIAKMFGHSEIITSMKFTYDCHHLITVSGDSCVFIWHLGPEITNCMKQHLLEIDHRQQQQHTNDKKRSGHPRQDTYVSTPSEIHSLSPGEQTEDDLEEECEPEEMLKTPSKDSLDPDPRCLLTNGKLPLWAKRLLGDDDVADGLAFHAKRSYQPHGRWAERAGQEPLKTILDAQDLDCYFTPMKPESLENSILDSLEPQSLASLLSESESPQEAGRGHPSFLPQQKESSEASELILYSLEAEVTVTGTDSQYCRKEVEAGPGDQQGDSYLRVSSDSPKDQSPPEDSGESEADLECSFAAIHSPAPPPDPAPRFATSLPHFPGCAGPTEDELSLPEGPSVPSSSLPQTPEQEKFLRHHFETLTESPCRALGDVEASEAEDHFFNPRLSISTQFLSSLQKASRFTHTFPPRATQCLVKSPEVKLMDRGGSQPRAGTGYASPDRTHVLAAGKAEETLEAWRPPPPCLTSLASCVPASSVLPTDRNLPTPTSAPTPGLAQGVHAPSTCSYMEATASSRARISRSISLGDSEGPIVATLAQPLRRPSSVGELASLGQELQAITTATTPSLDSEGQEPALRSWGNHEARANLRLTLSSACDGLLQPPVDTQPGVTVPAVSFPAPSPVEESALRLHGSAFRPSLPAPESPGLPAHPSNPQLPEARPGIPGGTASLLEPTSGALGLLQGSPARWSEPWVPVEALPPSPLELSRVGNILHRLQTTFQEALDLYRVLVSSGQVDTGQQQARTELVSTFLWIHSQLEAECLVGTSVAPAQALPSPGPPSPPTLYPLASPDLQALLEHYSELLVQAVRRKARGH
UniProt P19544: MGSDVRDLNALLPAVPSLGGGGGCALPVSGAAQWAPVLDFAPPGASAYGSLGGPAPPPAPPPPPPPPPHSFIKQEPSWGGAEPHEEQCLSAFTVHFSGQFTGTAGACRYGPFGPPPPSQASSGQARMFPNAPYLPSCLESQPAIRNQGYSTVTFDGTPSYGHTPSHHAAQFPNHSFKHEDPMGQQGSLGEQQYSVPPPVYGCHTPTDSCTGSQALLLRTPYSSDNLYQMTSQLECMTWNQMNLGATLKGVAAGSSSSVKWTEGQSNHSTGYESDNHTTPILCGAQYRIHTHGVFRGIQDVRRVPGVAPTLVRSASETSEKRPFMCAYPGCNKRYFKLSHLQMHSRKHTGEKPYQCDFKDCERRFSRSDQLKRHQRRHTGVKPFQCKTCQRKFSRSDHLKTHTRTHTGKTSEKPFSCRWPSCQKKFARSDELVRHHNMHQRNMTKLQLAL
UniProt Q9HAD4: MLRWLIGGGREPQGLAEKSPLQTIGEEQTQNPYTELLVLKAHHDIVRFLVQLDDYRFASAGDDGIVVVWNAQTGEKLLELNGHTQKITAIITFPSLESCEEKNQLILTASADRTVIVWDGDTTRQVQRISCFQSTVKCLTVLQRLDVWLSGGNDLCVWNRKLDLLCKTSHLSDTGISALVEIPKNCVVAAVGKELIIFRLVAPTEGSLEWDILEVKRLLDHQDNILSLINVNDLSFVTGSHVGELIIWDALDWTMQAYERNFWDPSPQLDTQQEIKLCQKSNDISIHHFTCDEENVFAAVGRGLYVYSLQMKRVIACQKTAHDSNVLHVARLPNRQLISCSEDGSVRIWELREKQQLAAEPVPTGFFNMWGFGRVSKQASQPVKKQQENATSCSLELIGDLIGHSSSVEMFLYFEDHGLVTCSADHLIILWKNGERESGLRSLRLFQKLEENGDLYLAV

The targets below were run with CC1Cc2ccccc2N1C(=O)C1CCCN(C1)C(=O)CCl (mixture of isomers) [TRIM25 ligand 11 (diastereomer mixture)] (assay: probe-labelled cysteine peptide fold change vs DMSO (competition) (log2 fold change); higher = less target engagement (more negative = stronger competition)). Settings: 10 µM; THP-1; incubation time: 4 h.
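Further: competitive chemoproteomic profiling in live THP-1 cells with an iodoacetamide desthiobiotin (IA-DTB) probe, comparing probe-labelled peptide intensities in compound-treated cells against DMSO-treated controls.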

Target | probe-labelled cysteine peptide fold change
WDR81_Q562E7_130_LSYPLGGGLPFEDGSCGPETLTR (UniProt Q562E7) | 0.039
WDR3_Q9UNX4_307_ILACHGTDSVLELFCILSK (UniProt Q9UNX4) | -0.0274
WDR76_Q9H967_66_VYLAPFSLSNYQLDQLMCPK (UniProt Q9H967) | -0.196
WDR76_Q9H967_562_QEDCVIVGSMAHPR (UniProt Q9H967) | 0.303
WDR1_O75083_382_MTVDESGQLISCSMDDTVR (UniProt O75083) | 0.177
WARS_P23381_274_GIFGFTDSDCIGK (UniProt P23381) | 0.00994
WDR11_Q9BZH6_1000_KCTDQLLLLGQTDR (UniProt Q9BZH6) | -0.0903
WDR11_Q9BZH6_1071_LAEGVQLLCLIDK (UniProt Q9BZH6) | 0.0963
WARS_P23381_394_QFGGNCDVDVSFMYLTFFLEDDDKLEQIRK (UniProt P23381) | -0.0941
WDR59_Q6PJI9_737_QLLESLLAHYCR (UniProt Q6PJI9) | 0.0591
WASHC5_Q12768_969_QQIANELNYSCR (UniProt Q12768) | 0.124
WRN_Q14191_1115_LYSYKPCDK (UniProt Q14191) | 0.0775
WRAP53_Q9BUR4_512_HVHLECR (UniProt Q9BUR4) | 0.0398
WDR70_Q9NW82_383_QAHDSGTDTSCVTFSYDGNVLASR (UniProt Q9NW82) | 0.312
WDR33_Q9C0J8_120_CPVFVVR (UniProt Q9C0J8) | -0.0921
WDR26_Q9H7D7_577_KYQGVTQGFYTIHSCFGGHNEDFIASGSEDHK (UniProt Q9H7D7) | 0.236
WDR62_O43379_826_CLLTNGK (UniProt O43379) | -0.102
WDR26_Q9H7D7_493_VQCLWCLSDGK (UniProt Q9H7D7) | 0.112
WT1_P19544_385_HTGVKPFQCK (UniProt P19544) | -0.144
WDR75_Q8IWA0_444+451_INMPHEDCITALCFCNAEK (UniProt Q8IWA0) | -0.0385
XAB2_Q9HCS7_66_LLPCSYK (UniProt Q9HCS7) | -0.0825
WASHC5_Q12768_521_TVQLIQALEEVQEFHQLESNLQVCQFLADTRK (UniProt Q12768) | 0.205
WDR41_Q9HAD4_340_QLISCSEDGSVR (UniProt Q9HAD4) | -0.0419

Same assay, conditions: 50 µM; THP-1; incubation time: 4 h

Target | probe-labelled cysteine peptide fold change
WASHC4_Q2M389_659_HLESYEILLDCYDK (UniProt Q2M389) | 0.28
WAPL_Q7Z5K2_964_TGEQDGLIGTALNCVLQVPK (UniProt Q7Z5K2) | 0.0904
WDR19_Q8NEZ3_813_EHDEACLAGVAQMSIR (UniProt Q8NEZ3) | 0.102
XAF1_Q6GPH4_62_LEHQQVGCTMCQQSMQK (UniProt Q6GPH4) | -0.202
WDR77_Q9BQA1_53_CWAGSLWLFK (UniProt Q9BQA1) | 0.013
WIZ_O95785_1048_CEFCGEFFENR (UniProt O95785) | 0.417
WDR61_Q9GZS3_266_TCVHTFFDHQDQVWGVK (UniProt Q9GZS3) | 0.0473
WDR3_Q9UNX4_296_ILACHGTDSVLELFCILSK (UniProt Q9UNX4) | -0.13
WDR36_Q8NI36_311_TDGHPVMAAGSPCGHIGLWDLEDK (UniProt Q8NI36) | -0.103
XPNPEP1_Q9NQW7_279_ALCADLSPR (UniProt Q9NQW7) | 0.0407
WDR75_Q8IWA0_12_CGGSELNFR (UniProt Q8IWA0) | 0.0841
WDR3_Q9UNX4_183_WWDLDTQHCFK (UniProt Q9UNX4) | 0.173
WDR45B_Q5MNZ6_63_CNYLALVGGGK (UniProt Q5MNZ6) | -0.0611
WDR53_Q7Z5U6_99_DSLDHFHVNEEEINCLSLNQTENLLASADDSGAIK (UniProt Q7Z5U6) | -0.245
WDR76_Q9H967_81_NSNNEVACKK (UniProt Q9H967) | -0.427
WDR76_Q9H967_562_FQAMWDPKQEDCVIVGSMAHPR (UniProt Q9H967) | -0.144
WDR81_Q562E7_130_LSYPLGGGLPFEDGSCGPETLTR (UniProt Q562E7) | -0.0489
WDR3_Q9UNX4_307_ILACHGTDSVLELFCILSK (UniProt Q9UNX4) | -0.132
WDR76_Q9H967_66_VYLAPFSLSNYQLDQLMCPK (UniProt Q9H967) | -0.0397
WDR76_Q9H967_562_QEDCVIVGSMAHPR (UniProt Q9H967) | 0.28

Target | probe-labelled cysteine peptide fold change
WDR1_O75083_382_MTVDESGQLISCSMDDTVR (UniProt O75083) | 0.243
WARS_P23381_274_GIFGFTDSDCIGK (UniProt P23381) | -0.0153
WDR11_Q9BZH6_1000_KCTDQLLLLGQTDR (UniProt Q9BZH6) | 0.0619
WDR11_Q9BZH6_1071_LAEGVQLLCLIDK (UniProt Q9BZH6) | 0.0498
WARS_P23381_394_QFGGNCDVDVSFMYLTFFLEDDDKLEQIRK (UniProt P23381) | 0.0643
WDR59_Q6PJI9_737_QLLESLLAHYCR (UniProt Q6PJI9) | 0.228
WASHC5_Q12768_969_QQIANELNYSCR (UniProt Q12768) | 0.12
WRN_Q14191_1115_LYSYKPCDK (UniProt Q14191) | -0.0533
WRAP53_Q9BUR4_512_HVHLECR (UniProt Q9BUR4) | 0.11
WDR70_Q9NW82_383_QAHDSGTDTSCVTFSYDGNVLASR (UniProt Q9NW82) | -0.591
WDR33_Q9C0J8_120_CPVFVVR (UniProt Q9C0J8) | 0.0764
WDR26_Q9H7D7_577_KYQGVTQGFYTIHSCFGGHNEDFIASGSEDHK (UniProt Q9H7D7) | 0.015
WDR62_O43379_826_CLLTNGK (UniProt O43379) | -0.173
WDR26_Q9H7D7_493_VQCLWCLSDGK (UniProt Q9H7D7) | 0.0721
WT1_P19544_385_HTGVKPFQCK (UniProt P19544) | -0.103
WDR75_Q8IWA0_444+451_INMPHEDCITALCFCNAEK (UniProt Q8IWA0) | 0.021
XAB2_Q9HCS7_66_LLPCSYK (UniProt Q9HCS7) | -0.0673
WASHC5_Q12768_521_TVQLIQALEEVQEFHQLESNLQVCQFLADTRK (UniProt Q12768) | 0.147
WDR41_Q9HAD4_340_QLISCSEDGSVR (UniProt Q9HAD4) | 0.061
